These are yes or no findings as the source states them, for the method shown. In cells and extracts the contact can be indirect. Some binding calls cover weakened binding; strength is not graded here.

Our source for the binding values is PMC12403488.

For assay [1], the target named is T1, stimulator of interferon gene (STING) (human (endogenous in HMC3)), Q86WV6. The experiment in a line: co-IP; lysate of OGD/R-treated HMC3 cells in Native Lysis Buffer; anti-STING antibody or anti-IgG antibody conjugated to AminoLink Coupling Resin, 2 h; western blot. As to conditions: remark: other sources report otherwise. For orientation: A western blot detects proteins with antibodies after separation by electrophoresis.

Assay [2] deals with T1, stimulator of interferon gene (STING) …. The experiment in a line: proximity ligation; Duolink In Situ; OGD/R-treated and control HMC3 cells, fixed with 4% PFA, permeabilised with 0.1% Triton X-100; STING antibody and RHBDF2 antibody; confocal microscope. The following applies: remark: other sources report otherwise.

B1: Rhomboid 5 homolog 2 (RHBDF2), Q6PJF5 1-856 (protein)
chain: MASADKNGGSVSSVSSSRLQSRKPPNLSITIPPPEKETQAPGEQDSMLPEGFQNRRLKKSQPRTWAAHTTACPPSFLPKRKNPAYLKSVSLQEPRSRWQESSEKRPGFRRQASLSQSIRKGAAQWFGVSGDWEGQRQQWQRRSLHHCSMRYGRLKASCQRDLELPSQEAPSFQGTESPKPCKMPKIVDPLARGRAFRHPEEMDRPHAPHPPLTPGVLSLTSFTSVRSGYSHLPRRKRMSVAHMSLQAAAALLKGRSVLDATGQRCRVVKRSFAFPSFLEEDVVDGADTFDSSFFSKEEMSSMPDDVFESPPLSASYFRGIPHSASPVSPDGVQIPLKEYGRAPVPGPRRGKRIASKVKHFAFDRKKRHYGLGVVGNWLNRSYRRSISSTVQRQLESFDSHRPYFTYWLTFVHVIITLLVICTYGIAPVGFAQHVTTQLVLRNKGVYESVKYIQQENFWVGPSSIDLIHLGAKFSPCIRKDGQIEQLVLRERDLERDSGCCVQNDHSGCIQTQRKDCSETLATFVKWQDDTGPPMDKSDLGQKRTSGAVCHQDPRTCEEPASSGAHIWPDDITKWPICTEQARSNHTGFLHMDCEIKGRPCCIGTKGSCEITTREYCEFMHGYFHEEATLCSQVHCLDKVCGLLPFLNPEVPDQFYRLWLSLFLHAGVVHCLVSVVFQMTILRDLEKLAGWHRIAIIFILSGITGNLASAIFLPYRAEVGPAGSQFGLLACLFVELFQSWPLLERPWKAFLNLSAIVLFLFICGLLPWIDNIAHIFGFLSGLLLAFAFLPYITFGTSDKYRKRALILVSLLAFAGLFAALVLWLYIYPINWPWIEHLTCFPFTSRFCEKYELDQVLH
As for B1, the binding result in assay [1] and in assay [2] was “binds” in each case.
